# From PubChem BioAssay AID2551 (National Center for Advancing Translational Sciences (NCATS), 2010)
# Chains of the proteins cited; added tags and fusions are not shown. Lines headed by an entry give the natural chain unless they say otherwise; changes in a name come on top.
# UniProt P51450: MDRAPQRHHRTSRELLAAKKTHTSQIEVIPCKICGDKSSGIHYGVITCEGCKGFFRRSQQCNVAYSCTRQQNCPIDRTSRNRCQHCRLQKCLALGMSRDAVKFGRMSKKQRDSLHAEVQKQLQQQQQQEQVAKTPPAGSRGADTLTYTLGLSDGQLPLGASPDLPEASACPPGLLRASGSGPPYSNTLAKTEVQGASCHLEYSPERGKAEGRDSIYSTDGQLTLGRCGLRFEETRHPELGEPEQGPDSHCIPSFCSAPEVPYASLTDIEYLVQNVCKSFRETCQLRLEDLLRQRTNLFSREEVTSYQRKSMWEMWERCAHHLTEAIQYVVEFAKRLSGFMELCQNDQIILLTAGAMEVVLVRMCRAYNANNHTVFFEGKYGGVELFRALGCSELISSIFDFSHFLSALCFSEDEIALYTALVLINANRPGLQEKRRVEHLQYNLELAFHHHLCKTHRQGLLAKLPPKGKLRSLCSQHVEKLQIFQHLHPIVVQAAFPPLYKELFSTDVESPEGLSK
# Among all 310,000 compounds or so, about 17,000 (5.5%) were called active. Inconclusive results, whose numbers are uncertain, are shown with a selection of clear calls. Calls come from the whole dose curve; as a rule, active = well fitted inhibition curve with a large enough effect; inconclusive = small, poorly fitted or top-dose-only effect, or effect the other way; inactive = no such curve, though single readings can be large or run the other way. A potency beside an inconclusive call is a rough fit, not a confirmed value.
# Biological target: Nuclear receptor ROR-gamma (Mus musculus) (UniProt P51450)
# Experiment: qHTS for inhibitors of ROR gamma transcriptional activity; note: nearly all actives have a fitted effect of over 60% in size
# Conditions: Drosophila S2 Gal4-RORgamma UAS-luciferase reporter, 20 h; activity change, negative = inhibition: at 53.6 µM (top of the series)
# In short: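 In this cell-based reporter format, copper sulfate (700 uM final) drives Gal4–ROR gamma fusion expression from a metallothionein promoter in Drosophila Schneider cells; compounds preincubated 1 hr, reporter read after 20 hr at ambient temperature.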
# % is set by controls: 0 for no effect and ±100 for the full control effect; potency is the fitted concentration of half-maximal effect.
SMILES,Potency,"activity change, negative = inhibition"
CCc1nc2c(c(=O)[nH]1)C1(CCCC1)Cc1ccccc1-2,inactive,
O=C(c1ccc(N2CCN(C(=O)c3ccccc3)CC2)cc1)c1cccc(F)c1,"inconclusive: 17.8 µM [activator, partial curve]",
O=C1C2C3C=CC(C3)C2C(=O)N1CCN1CCN(Cc2ccc([N+](=O)[O-])cc2)CC1 (stereo not given),"inconclusive: 35.5 µM [activator, single point]",
CCn1nc(C(=O)OCc2cccc(S(=O)(=O)N(C)C)c2)c2ccccc2c1=O,"inconclusive: 35.5 µM [activator, single point]",
NC(=O)c1ccc(NC(=O)CN2CCN(c3ccccc3)CC2)cc1,,inactive: 44.8% [at 1.91 µM]
COc1ccc(Cc2noc(CN3CCC(c4ccncc4)CC3)n2)cc1OC,"inconclusive: 28.2 µM [inhibitor, single point]",
Cc1cccc(N(CC(=O)NCCSc2nc3ccccc3s2)S(=O)(=O)c2ccccc2)c1,"inconclusive: 20 µM [activator, partial curve, poor fit]",
O=C(Nc1ccccc1N1CCN(C(=O)c2ccccc2)CC1)c1ccc([N+](=O)[O-])o1,active: 5.62 µM,
CN1CCN([C@@H](c2ccccc2)c2ccc(Cl)cc2)CC1,,inactive: 15.3% [at 2.98 µM]
CCOCCc1nnc(NC(=O)C2CC(=O)N(CCc3ccc(F)cc3)C2)s1 (stereo not given),inactive,
COc1ccc(NC(=O)C2CC(c3ccccc3Cl)=NO2)cc1 (stereo not given),"inconclusive: 14.1 µM [activator, partial curve]",
O=C(NCc1ccccc1)c1ccco1,inactive,
COc1ccc(NC(=O)Nc2nc3ccccc3s2)cc1,"inconclusive: 35.5 µM [inhibitor, single point]",
O=C(CNS(=O)(=O)c1cccs1)N1CCc2ccccc2C1,"inconclusive: 3.16 µM [activator, single point]",
Cc1c(Cl)cccc1NC(=O)CSc1nc2ncc(Cl)cc2[nH]1,"inconclusive: 31.6 µM [inhibitor, single point]",
C[C@H](NC(=O)c1nc[nH]c1C(=O)N[C@@H](C)C(=O)OC(C)(C)C)C(=O)OC(C)(C)C,"inconclusive: 17.8 µM [inhibitor, single point]",
O=C1CSC(=S)N1CC1CCCO1 (stereo not given),"inconclusive: 35.5 µM [inhibitor, single point]",
CC(=O)OC1C[C@]2(C)C(C(C)=O)CCC2C2CCC3=CC(=O)CC[C@@]3(C)C12 (stereo not given in full),inactive,
OC1CCN(C(=S)Nc2ccc(Nc3ccccc3)cc2)CC1,inactive,
CC(/C=C/c1ccc(O)cc1)=N/O,"inconclusive: 1.58 µM [activator, partial curve]",
O=S(=O)(Nc1ccc2nc(C(F)(F)F)[nH]c2c1)c1ccccc1,"inconclusive: 15.8 µM [activator, partial curve]",
Cc1cccc(CNc2ccnc(-c3ccccc3CN(C)C)n2)c1,inactive,
COc1ccccc1C(=O)CC(=O)C(=O)Nc1cccc([N+](=O)[O-])c1C,active: 7.08 µM,
CCOC(=O)N1CCN(C(=O)c2cccn3c(=O)c4sccc4nc23)CC1,"inconclusive: 0.282 µM [activator, single point]",
CCc1ccc(C2CC(=O)NC(SCC(=O)OC(C)C)=C2C#N)cc1 (stereo not given),"inconclusive: 3.16 µM [activator, partial curve]",

SMILES,Potency,"activity change, negative = inhibition"
CCS(=O)(=O)c1ccc(O)c(NC(=O)COc2ccc(C)cc2)c1,"inconclusive: 11.2 µM [activator, single point]",
O=C(COc1ccc(Br)cc1)NCCNC(=O)c1ccncc1,inactive,
O=C(Nc1cccc(O)c1)c1cc(-c2ccccc2Cl)on1,active: 0.224 µM,
COC(=O)c1ccc2c(=O)n(CCCN3CCOCC3)c(=S)[nH]c2c1,"inconclusive: 25.1 µM [inhibitor, single point]",
COc1ccc(/C=N/NC(=O)c2cc(Br)ccc2O)cc1Cn1cc(Cl)cn1,"inconclusive: 20 µM [inhibitor, single point]",
O=C(Nc1cccnc1N1CCOCC1)c1cccs1,inactive,
CCOC(=O)Cc1csc(NS(=O)(=O)c2ccc(SC)cc2)n1,inactive,
O=C1[C@@H]2[C@@H]3C[C@@H]([C@H]4ON=C(c5ccc(Cl)cc5)[C@@H]34)[C@@H]2C(=O)N1C1CCCCC1,"inconclusive: 12.6 µM [activator, single point]",
COC(=O)c1c(C)oc2c1cc(NS(=O)(=O)c1cccs1)c1ccccc12,"inconclusive: 4.47 µM [inhibitor, partial curve]",
COc1ccc(OCCOC(=O)c2nc3nccc(C)n3n2)cc1,inactive,
O=C(NC(=S)N1CCOCC1)c1cc2ccccc2o1,active: 1 µM,
Cc1cc(N/N=C/c2ccccc2[N+](=O)[O-])nc(-n2nc(C)cc2C)n1,"inconclusive: 0.0891 µM [inhibitor, full curve]",
O=C(Nc1ccc2c(c1)OCO2)c1ccc(N2CCCC2)c([N+](=O)[O-])c1,"inconclusive: 7.94 µM [activator, partial curve]",
Cc1cccc(C)c1NC(=O)CN(c1ccccn1)S(=O)(=O)c1ccccc1,"inconclusive: 31.6 µM [activator, single point]",
COc1cc2c(cc1NC(=O)c1ccc3c(c1)OCO3)oc1ccccc12,"inconclusive: 6.31 µM [activator, partial curve]",
COc1cc([N+](=O)[O-])cc(CN2CCCCC2)c1O,inactive,
Cc1sc(NC(=O)C2CCCCC2C(=O)O)c(C(N)=O)c1-c1ccc(C(C)(C)C)cc1 (stereo not given),"inconclusive: 10 µM [activator, partial curve]",
COc1cccc(/C=N/NC(=O)c2c(C)nc3ccc(Cl)cn23)c1O,active: 3.16 µM,
O=C(Cc1ccc(Cl)cc1)NNC(=O)c1ccco1,inactive,
COc1ccc(C(=O)NCCSc2ccccc2C)cc1,"inconclusive: 12.6 µM [inhibitor, single point]",
COc1ccccc1OCC(=O)NNC(=O)c1c(-c2ccccc2Cl)noc1C,inactive,
CN(C)c1ncc2ncc(=O)n(Cc3cccs3)c2n1,"inconclusive: 3.55 µM [inhibitor, single point]",
CC1CCCC(C)N1C(=O)c1ccc(S(=O)(=O)NCc2ccco2)cc1 (stereo not given),"inconclusive: 31.6 µM [activator, single point]",
CN(CCCNC(=O)c1cc2c(Cl)nc3ccccc3c2s1)Cc1ccccc1,"inconclusive: 15.8 µM [inhibitor, single point]",
Oc1c(N=NC(=S)Nc2ccccc2F)c2ccccc2n1Cc1cccc(Cl)c1,"inconclusive: 1.78 µM [inhibitor, partial curve]",

SMILES,Potency,"activity change, negative = inhibition"
COC(=O)c1cc2ccsc2n1CC(=O)Nc1cc(Cl)ccc1OC,"inconclusive: 35.5 µM [inhibitor, single point]",
CC(C)(CN1CCCC1)NC(=O)C1CCC(=O)N(CCCN2CCOCC2)C1 (stereo not given),inactive,
CCC(C)C1NC(=S)N(C2CCCCC2)C1=O (stereo not given),active: 6.31 µM,
CC(=O)Nc1ccc(-c2csc(NC(=O)CCCc3cccs3)n2)cc1,"inconclusive: 22.4 µM [activator, single point]",
COc1cccc(-c2nc(-c3ccc4c(c3)-c3ccccc3S4(=O)=O)c(-c3ccccc3)[nH]2)c1OC,"inconclusive: 0.891 µM [activator, full curve]",
Cc1ccc2c(c1)C(=C(C#N)C#N)C(=O)N2CCN1CCCCC1,inactive,
S=C(NCC1CCCO1)Nc1ccc(Cl)cc1 (stereo not given),active: 10 µM,
Cc1ccc(C)c(NS(=O)(=O)c2csc(C(N)=O)c2)c1,"inconclusive: 10 µM [activator, partial curve]",
COc1ccc2oc(C(=O)NCC(Cc3ccccc3)N(C)C)c(C)c2c1 (stereo not given),inactive,
Cc1ccccc1CS(=O)(=O)CCC(=O)NCCCN1CCN(c2ccccc2F)CC1,inactive,
CC1CN(Cc2nnc(-c3ccccc3)o2)CC(C)O1 (stereo not given),inactive,
COc1ccc(/C=C2/SC(=S)N(CCC(=O)O)C2=O)cc1,active: 5.01 µM,
CC(NC(=O)c1ccccc1F)c1nnc(SCC(=O)NC2CCCC2)n1C (stereo not given),inactive,
O=C(N/N=C/c1c(O)ccc2ccccc12)c1[nH]ncc1Br,active: 2.51 µM,
Cn1c(=O)oc2cc(S(=O)(=O)Nc3cccc(F)c3)ccc21,"inconclusive: 35.5 µM [activator, single point]",
C/C(=N/N=C1/NC(=O)CC(C(=O)Nc2ccccc2)S1)c1cccs1 (stereo not given),"inconclusive: 35.5 µM [inhibitor, single point]",
C/C=C(/C)C(=O)OC1c2c(ccc3ccc(=O)oc23)OC(C)(C)C1OC(=O)/C(C)=C\C (stereo not given),"inconclusive: 35.5 µM [activator, single point]",
Cc1ccc(C)c(NC(=O)CS(=O)(=O)c2cccc3nsnc23)c1,"inconclusive: 12.6 µM [activator, partial curve]",
O=C(CCc1ccccc1)NNC(=O)c1cccc(F)c1,inactive,
Cc1cccc(NC(=S)NC(=O)c2ccc(Br)o2)c1,active: 2.82 µM,
COc1ccc(NC2=Nc3cccc4cccc2c34)cc1OC,inactive,
Cc1cc(NC(=O)CSc2nnc(-c3c[nH]c4ccccc34)n2-c2ccc(Cl)cc2)no1,"inconclusive: 35.5 µM [inhibitor, single point]",
CCCCOC(=O)c1ccc(NC(=S)NC(=O)c2c(Br)c(C)nn2C)cc1,active: 15.8 µM,
CCOc1ccc(C(=O)Nc2nnc(C3=COCCO3)o2)cc1,active: 2.51 µM,
Cc1sc2ncnc(NC3CCN(Cc4ccccc4)CC3)c2c1C,"inconclusive: 35.5 µM [inhibitor, single point]",

# Three entries from above, set out differently.
SMILES	Potency	activity change, negative = inhibition
O=C1[C@@H]2[C@@H]3C[C@@H]([C@H]4ON=C(c5ccc(Cl)cc5)[C@@H]34)[C@@H]2C(=O)N1C1CCCCC1	inconclusive: 12.6 µM [activator, single point]	
COC(=O)c1c(C)oc2c1cc(NS(=O)(=O)c1cccs1)c1ccccc12	inconclusive: 4.47 µM [inhibitor, partial curve]	
COc1ccc(OCCOC(=O)c2nc3nccc(C)n3n2)cc1	inactive	
